These results are taken from the supplement of paper PMC4604168 (melanoma cell lines).

Test systems include WM115; WM1716; WM1745; WM3526; WM3619; WM451Lu.
Common to all, as to assay: cleaved PARP positive nuclei fraction relative to DMSO control; melanoma cells; higher = more apoptosis
Common to all, as to conditions: library dose: low library concentration; 72 h

Some of the results follow. Repeats are few or missing, and single values can be far off.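 Cells were imaged in 1,536-well plates, and nuclei stained with an antibody against cleaved PARP were counted against all DNA-stained nuclei to give the apoptosis fraction. Screening doses were chosen to leave most cells alive, and resting and induced cleaved-PARP levels differ strongly between cell lines.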

In the case of `COc1ccc(C2=N[C@@H](c3ccc(Cl)cc3)[C@@H](c3ccc(Cl)cc3)N2C(=O)N2CCNC(=O)C2)c(OC(C)C)c1` [Nutlin-3] + O=c1cc(-c2cccc3c2Sc2ccccc2S3)oc(N2CCOCC2)c1 [KU55933] (first compound 0.1 µM, partner dose 1 µM), the “cleaved PARP positive nuclei fraction” value amounted to 81.2% in the test on WM115; 54.8% in the test with WM1716; 104% with WM1745; 244% in the test with WM3526; 111% in the test on WM3619; 20.9% with WM451Lu.

Regarding `COc1ccc(C2=N[C@@H](c3ccc(Cl)cc3)[C@@H](c3ccc(Cl)cc3)N2C(=O)N2CCNC(=O)C2)c(OC(C)C)c1` [Nutlin-3] + O=C(Nc1ccccc1)c1cc([N+](=O)[O-])ccc1Cl [GW9662] (first compound 0.1 µM, partner dose 2 µM), the “cleaved PARP positive nuclei fraction” value was determined as 101% with WM115; 90.2% with WM1716; 100% in the test with WM1745; 150% in the test with WM3526; 124% in the test with WM3619; 65.8% with WM451Lu.

`CCCCCCCCc1ccc(CCC(N)(CO)CO)cc1` [fingolimod] + CCCS(=O)(=O)Nc1ccc(F)c(C(=O)c2c[nH]c3ncc(Cl)cc23)c1F [PLX4720] (first compound 2 µM, partner dose 0.08 µM): the “cleaved PARP positive nuclei fraction” value with WM115 was determined as 64.7%; in the test with WM1716 it was 127%; in the test with WM1745, 107%; in the test on WM3526, 95.4%; in the test on WM3619, 95.2%; in the test with WM451Lu, 71.8%.

Turning to `CCN(CC)CCNC(=O)c1c(C)[nH]c(/C=C2\C(=O)Nc3ccc(F)cc32)c1C` [sunitinib] + OCCn1cc(-c2cnc3nnn(Cc4ccc5ncccc5c4)c3n2)cn1 [PF04217903] (first compound 0.4 µM, partner dose 1 µM), the “cleaved PARP positive nuclei fraction” value was found to be 38% with WM115; 42.1% in the test on WM1716; 96.3% in the test with WM1745; 70% with WM3526; 62.7% in the test on WM3619; 139% in the test on WM451Lu.

In the case of `Cn1cnc2c(F)c(Nc3ccc(Br)cc3Cl)c(C(=O)NOCCO)cc21` [selumetinib] + O=C(O)C(=O)Nc1sc2c(c1C(=O)O)CCNC2 [TCS401] (first compound 0.015 µM, partner dose 1.66667 µM), the “cleaved PARP positive nuclei fraction” value with WM115 is 128%; in the test on WM1716, 139%; with WM1745 it was 91.1%; with WM3526 it was 145%; in the test on WM3619, 98.6%; in the test with WM451Lu, 20.3%.

With `CN(c1ncccc1CNc1nc(Nc2ccc3c(c2)CC(=O)N3)ncc1C(F)(F)F)S(C)(=O)=O` + CS(=O)(=O)CCNCc1ccc(-c2ccc3ncnc(Nc4ccc(OCc5cccc(F)c5)c(Cl)c4)c3c2)o1 [lapatinib] (first compound 0.08 µM, partner dose 0.8 µM), the “cleaved PARP positive nuclei fraction” value is 237% with WM115; 1190% with WM1716; 275% in the test on WM1745; 187% in the test with WM3526; 83.2% with WM3619; 122% with WM451Lu.

In the case of `C[C@]1(O)C[C@@H](c2nc(-c3ccc4ccc(-c5ccccc5)nc4c3)c3c(N)nccn32)C1` + Nc1cccc2c1CN(C1CCC(=O)NC1=O)C2=O [lenalidomide] (first compound 0.4 µM, partner dose 1 µM), the “cleaved PARP positive nuclei fraction” value came to 25.4% in the test on WM115; 172% in the test on WM1716; 117% in the test on WM1745; 87.2% in the test with WM3526; 103% in the test with WM3619; 85% in the test on WM451Lu.

With `C[C@]1(O)C[C@@H](c2nc(-c3ccc4ccc(-c5ccccc5)nc4c3)c3c(N)nccn32)C1` + C[C@@H]1CCN(C(=O)CC#N)C[C@@H]1N(C)c1ncnc2[nH]ccc12 [CP690550] (first compound 0.4 µM, partner dose 1 µM), the “cleaved PARP positive nuclei fraction” value with WM115 was 64.7%; in the test with WM1716, 74.7%; with WM1745, 81.7%; in the test on WM3526 it was 71%; in the test with WM3619 it was 92.7%; in the test with WM451Lu it was 82%.

As to `CC(=O)O[C@@]12CO[C@@H]1C[C@H](O)[C@@]1(C)C(=O)[C@H](O)C3=C(C)[C@@H](OC(=O)[C@H](O)[C@@H](NC(=O)OC(C)(C)C)c4ccccc4)C[C@@](O)([C@@H](OC(=O)c4ccccc4)[C@H]21)C3(C)C` [Docetaxel] + COc1ccc(Cl)c(Nc2nc3ccccc3nc2NS(=O)(=O)c2cccc(NC(=O)C(C)(C)N)c2)c1 [XL147] (first compound 0.0001 µM, partner dose 0.8 µM), the “cleaved PARP positive nuclei fraction” value worked out at 275% in the test on WM115; 173% in the test with WM1716; 151% in the test with WM1745; 261% in the test on WM3526; 271% with WM3619; 78.4% in the test with WM451Lu.

As to `C[C@@H](N)c1ccc(C(=O)Nc2ccnc3[nH]ccc23)cc1` + OCc1c[nH]c2ccccc12 [Indole-3-carbinol] (first compound 0.4 µM, partner dose 0.8 µM), the “cleaved PARP positive nuclei fraction” value is 233% with WM115; 113% in the test with WM1716; 141% with WM1745; 43.3% in the test with WM3526; 99.6% in the test on WM3619; 55.4% in the test on WM451Lu.

As to `CN(c1ncccc1CNc1nc(Nc2ccc3c(c2)CC(=O)N3)ncc1C(F)(F)F)S(C)(=O)=O` + CNC(=O)c1cc(Oc2ccc(NC(=O)Nc3ccc(Cl)c(C(F)(F)F)c3)cc2)ccn1 [sorafenib] (first compound 0.08 µM, partner dose 0.4 µM), the “cleaved PARP positive nuclei fraction” value turned out to be 222% in the test on WM115; 140% in the test with WM1716; 87.3% in the test with WM1745; 40.4% in the test on WM3526; 203% in the test with WM3619; 274% with WM451Lu.

In the case of `COc1ccc(C2=N[C@@H](c3ccc(Cl)cc3)[C@@H](c3ccc(Cl)cc3)N2C(=O)N2CCNC(=O)C2)c(OC(C)C)c1` [Nutlin-3] + O=C(Nc1cccc(Cl)c1)Nc1ncc(CCNc2ncnc3ccsc23)s1 [SNS314] (first compound 0.1 µM, partner dose 0.0008 µM), the “cleaved PARP positive nuclei fraction” value in the test on WM115 came out at 256%; with WM1716, 58.8%; in the test on WM1745 it was 102%; in the test with WM3526 it was 57.2%; with WM3619, 112%; with WM451Lu, 124%.

`C[C@@H](N)c1ccc(C(=O)Nc2ccnc3[nH]ccc23)cc1` + CC(=O)O[C@@]12CO[C@@H]1C[C@H](O)[C@@]1(C)C(=O)[C@H](O)C3=C(C)[C@@H](OC(=O)[C@H](O)[C@@H](NC(=O)OC(C)(C)C)c4ccccc4)C[C@@](O)([C@@H](OC(=O)c4ccccc4)[C@H]21)C3(C)C [Docetaxel] (first compound 0.4 µM, partner dose 0.0001 µM): the “cleaved PARP positive nuclei fraction” value with WM115 is 192%; in the test with WM1716 it was 207%; with WM1745 it was 167%; in the test with WM3526, 79%; with WM3619, 139%; in the test with WM451Lu, 141%.
